PubChem BioAssay AID493246 | Drosophila RNAi Screening Center, 2011
The screen tested about 21,000 reagents; below is an unselected part of those with a known target gene and a result. Of all reagents, 429 (2%) were called active. 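Values are raw and not normalised between plates; calls rest on per-plate z-scores that were not deposited.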 Reagents against one gene are numbered here. A plus sign joins genes that one reagent is predicted to hit. The record does not give: the amount of reagent, the time to read-out.

Screen: 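Genome-wide search for dsRNAs that reduce cell number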 (primary screen)
Cell system: Drosophila Kc and S2R+ cells
Knock-down reagent: long dsRNA against Drosophila genes
Read-out: 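Raw, unnormalised count of remaining cells in each well; per-plate z-scores of cell number underlie the calls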
Reading the numbers: Kc cell number and S2R+ cell number: higher = more cells remaining
Hit rule: 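Active when the per-plate z-score of cell number is 3 or more in the direction of fewer cells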

| gene | reagent | Kc cell number, rep 1 | Kc cell number, rep 2 | S2R+ cell number, rep 1 | S2R+ cell number, rep 2 | Call |
| --- | --- | --- | --- | --- | --- | --- |
| CG12835 (retired record) | 1 | 1.60e6 | 1.63e6 | 1.21e6 | 1.39e6 | inactive |
| Srp72 (Signal recognition particle 72) | 1 | 1.73e6 | 1.96e6 | 1.22e6 | 1.32e6 | inactive |
| BOD1 (Biorientation Defective 1) | 1 | 5.19e5 | – | 7.90e5 | – | inactive |
| Top3beta (Topoisomerase 3beta) | 1 | 5.88e5 | – | 8.21e5 | – | inactive |
| CG9782 | 1 | 1.20e6 | 1.40e6 | 1.05e6 | 1.17e6 | inactive |
| CG9782 | 2 | 1.57e6 | 1.57e6 | 1.10e6 | 1.18e6 | inactive |
| Scgbeta (Sarcoglycan beta) | 1 | 1.60e6 | 1.81e6 | 1.24e6 | 1.34e6 | inactive |
| Ugt302K1 (UDP-glycosyltransferase family 302 member K1) | 1 | 1.60e6 | 1.56e6 | 1.19e6 | 1.32e6 | inactive |
| nrv2 (nervana 2) | 1 | 1.54e6 | 1.55e6 | 1.06e6 | 1.17e6 | inactive |
| nrv2 (nervana 2) | 2 | 1.27e6 | 1.36e6 | 7.86e5 | 8.31e5 | inactive |
| Smyd4-4 (SET and MYND domain containing, class 4, member 4) | 1 | 1.24e6 | 1.34e6 | 1.06e6 | 1.10e6 | inactive |
| CG10257 | 1 | 1.46e6 | 1.53e6 | 1.19e6 | 1.29e6 | inactive |
| CG11018 | 1 | 1.21e6 | 1.38e6 | 1.15e6 | 1.16e6 | inactive |
| CG31075 | 1 | 1.44e6 | 1.50e6 | 9.91e5 | 1.09e6 | inactive |
| alpha-Est8 (alpha-Esterase-8) | 1 | 1.49e6 | 1.65e6 | 1.24e6 | 1.33e6 | inactive |
| side-IV (sidestep IV) | 1 | 1.35e6 | 1.38e6 | 1.09e6 | 1.16e6 | inactive |
| Cmpk (Cytidine/uridine monophosphate kinase 1) | 1 | 5.04e5 | – | 7.73e5 | – | inactive |
| Dhc1 (Dynein heavy chain 1) | 1 | 1.34e6 | 1.31e6 | 1.27e6 | 1.31e6 | inactive |
| upd3 (unpaired 3) | 1 | 1.53e6 | 1.55e6 | 1.11e6 | 1.20e6 | inactive |
| upd3 (unpaired 3) | 2 | 1.49e6 | 1.52e6 | 1.11e6 | 1.16e6 | inactive |
| CG4213 | 1 | 1.64e6 | 1.61e6 | 1.16e6 | 1.34e6 | inactive |
| CG17568 | 1 | 1.30e6 | 1.41e6 | 1.02e6 | 1.18e6 | inactive |
| alphaTub85E (alpha-Tubulin at 85E) | 1 | 1.49e6 | 1.54e6 | 7.62e5 | 8.38e5 | active |
| CG8654 | 1 | 1.34e6 | 1.33e6 | 1.11e6 | 1.10e6 | inactive |
| Ilp2 (Insulin-like peptide 2) | 1 | 1.25e6 | 1.35e6 | 1.41e6 | 1.09e6 | inactive |
| CCDC151 (Coiled-coil domain containing protein 151) | 1 | 1.38e6 | 1.45e6 | 1.41e6 | 1.52e6 | inactive |
| S-Lap8 (Sperm-Leucylaminopeptidase 8) | 1 | 1.43e6 | 1.44e6 | 1.02e6 | 1.20e6 | inactive |
| MCU (Mitochondrial calcium uniporter) | 1 | 1.49e6 | 1.32e6 | 1.19e6 | 1.20e6 | inactive |
| CG34006 (retired record) | 1 | 1.09e6 | 1.66e6 | 1.08e6 | 1.14e6 | inactive |
| Acsl (Acyl-CoA synthetase long-chain) | 1 | 1.25e6 | 1.34e6 | 1.07e6 | 1.18e6 | inactive |
| Syx6 (Syntaxin 6) | 1 | 1.35e6 | 1.41e6 | 1.14e6 | 1.16e6 | inactive |
| Trxr2 (Thioredoxin reductase 2) | 1 | 1.78e6 | 1.92e6 | 1.38e6 | 1.48e6 | inactive |
| CG12986 | 1 | 1.63e6 | 1.68e6 | 1.09e6 | 1.08e6 | inactive |
| CG13972 | 1 | 1.52e6 | 1.52e6 | 9.82e5 | 1.14e6 | inactive |

Next part; the last 3 above are carried over.
| gene | reagent | Kc cell number, rep 1 | Kc cell number, rep 2 | S2R+ cell number, rep 1 | S2R+ cell number, rep 2 | Call |
| --- | --- | --- | --- | --- | --- | --- |
| Trxr2 (Thioredoxin reductase 2) | 1 | 1.78e6 | 1.92e6 | 1.38e6 | 1.48e6 | inactive |
| CG12986 | 1 | 1.63e6 | 1.68e6 | 1.09e6 | 1.08e6 | inactive |
| CG13972 | 1 | 1.52e6 | 1.52e6 | 9.82e5 | 1.14e6 | inactive |
| CG6028 | 1 | 1.48e6 | 1.58e6 | 1.09e6 | 1.15e6 | inactive |
| CG12546 + CG14452 | 1 | 1.59e6 | 1.59e6 | 1.15e6 | 1.31e6 | inactive |
| Swim (Secreted Wg-interacting molecule) | 1 | 1.29e6 | 1.37e6 | 1.09e6 | 1.13e6 | inactive |
| CG12081 | 1 | 5.34e5 | – | 8.75e5 | – | inactive |
| CG33144 | 1 | 1.33e6 | 1.36e6 | 1.05e6 | 1.06e6 | inactive |
| CG33144 | 2 | 1.94e6 | 1.96e6 | 1.53e6 | 1.78e6 | inactive |
| CG12182 | 1 | 1.59e6 | 1.76e6 | 1.37e6 | 1.43e6 | inactive |
| cysu (Curly Su) | 1 | 1.17e6 | 1.21e6 | 1.08e6 | 1.21e6 | inactive |
| Mrm2 (Mitochondrial rRNA methyltransferase 2) | 1 | 1.21e6 | 1.24e6 | 1.09e6 | 1.21e6 | inactive |
| Edc3 (Enhancer of decapping 3) | 1 | 1.38e6 | 1.41e6 | 1.24e6 | 1.27e6 | inactive |
| plx (pollux) | 1 | 1.44e6 | 1.60e6 | 1.23e6 | 1.34e6 | inactive |
| plx (pollux) | 2 | 1.29e6 | 1.28e6 | 1.03e6 | 1.15e6 | inactive |
| CG17127 | 1 | 1.57e6 | 1.56e6 | 1.16e6 | 1.26e6 | inactive |
| CG9876 | 1 | 1.68e6 | 1.73e6 | 1.33e6 | 1.54e6 | inactive |
| PGRP-LD + Pmi | 1 | 8.72e5 | 1.09e6 | 1.36e6 | 6.66e5 | inactive |
| PGRP-LD + Pmi | 2 | 1.28e6 | 1.23e6 | 1.25e6 | 1.29e6 | inactive |
| CG13474 | 1 | 1.40e6 | 1.67e6 | 1.16e6 | 1.39e6 | inactive |
| DCP1 (Decapping protein 1) | 1 | 1.30e6 | 1.36e6 | 1.04e6 | 1.00e6 | inactive |
| CG5089 | 1 | 1.35e6 | 1.45e6 | 1.19e6 | 1.19e6 | inactive |
| CG13022 | 1 | 1.31e6 | 1.47e6 | 1.33e6 | 1.42e6 | inactive |
| CG33337 | 1 | 1.31e6 | 1.35e6 | 1.04e6 | 1.13e6 | inactive |
| CG6738 | 1 | 1.54e6 | 1.70e6 | 1.02e6 | 1.11e6 | inactive |
| CG31288 | 1 | 1.43e6 | 1.49e6 | 1.08e6 | 1.17e6 | inactive |
| CG6865 | 1 | 1.64e6 | 1.79e6 | 1.35e6 | 1.46e6 | inactive |
| AstA-R1 (Allatostatin A receptor 1) | 1 | 1.31e6 | 1.52e6 | 1.11e6 | 1.14e6 | inactive |
| AstA-R1 (Allatostatin A receptor 1) | 2 | 1.60e6 | 1.57e6 | 1.03e6 | 1.19e6 | inactive |
